{"sequences": {"note": "By UniProt entry, the sequences of proteins in these tests, tags left out. Where a name states a change or a piece, a line headed by the entry shows the natural chain unless it says otherwise.", "UniProt P18054": "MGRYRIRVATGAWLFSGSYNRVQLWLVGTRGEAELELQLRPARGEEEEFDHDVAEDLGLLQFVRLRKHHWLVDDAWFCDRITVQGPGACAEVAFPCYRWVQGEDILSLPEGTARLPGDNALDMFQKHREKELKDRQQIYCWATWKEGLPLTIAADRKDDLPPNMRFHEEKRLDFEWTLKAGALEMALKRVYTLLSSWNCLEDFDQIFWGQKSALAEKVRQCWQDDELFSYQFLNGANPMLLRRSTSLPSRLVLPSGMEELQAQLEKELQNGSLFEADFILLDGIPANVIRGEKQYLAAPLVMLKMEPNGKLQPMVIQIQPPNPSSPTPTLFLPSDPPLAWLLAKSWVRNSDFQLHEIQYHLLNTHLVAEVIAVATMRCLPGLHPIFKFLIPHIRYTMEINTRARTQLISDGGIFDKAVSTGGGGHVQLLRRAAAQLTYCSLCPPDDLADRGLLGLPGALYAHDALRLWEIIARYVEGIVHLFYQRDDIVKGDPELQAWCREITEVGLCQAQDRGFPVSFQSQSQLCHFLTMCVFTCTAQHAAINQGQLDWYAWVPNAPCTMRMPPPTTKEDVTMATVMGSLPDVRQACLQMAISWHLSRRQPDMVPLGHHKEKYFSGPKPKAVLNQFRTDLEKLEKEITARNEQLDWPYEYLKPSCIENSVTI"}, "source": "PubChem BioAssay AID1671190", "about": "(National Center for Advancing Translational Sciences (NCATS), 2021)", "note": "Among all 580,000 compounds or so, about 6,100 (1.1%) were called active. This list was built around the results that the source calls inconclusive (neither active nor inactive); the mix of calls is not that of the screen. Calls come from the whole dose curve; as a rule, active = well fitted inhibition curve with a large enough effect; inconclusive = small, poorly fitted or top-dose-only effect, or another doubt; inactive = no such curve, though single readings can be large or run the other way. Where the call is inconclusive, the potency comes from a doubtful curve fit. % is set by controls: 0 for no effect and ±100 for the full control effect; potency is the fitted concentration of half-maximal effect."}
{"biological_target": "Polyunsaturated fatty acid lipoxygenase ALOX12 (Homo sapiens) (UniProt P18054)", "experiment": "Primary qHTS assay for inhibitors of human arachidonate 12S-lipoxygenase (ALOX12): Round 2", "details": "purified 12hLO, xylenol orange hydroperoxide absorbance; activity change, negative = inhibition: at 108 µM (top of the series) unless noted", "method_in_brief": "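Hydroperoxide product was detected by ferrous iron/xylenol orange as the 573 to 405 nm absorbance ratio. Arachidonic acid at 40 uM (final) was turned over for 30 min at room temperature by 150 nM human 12hLO, pH 7.0 Hepes buffer, after 15 min compound preincubation.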"}
{"smiles": "O=C(c1ccccc1Cl)N(Cc1ccco1)Cc1ccco1", "Potency": "inactive"}
{"smiles": "Cc1cc(C(F)(F)F)nn1-c1nc(-c2ccccc2)cc(C(F)(F)F)n1", "Potency": "inconclusive: 50.1 µM [inhibitor, partial curve, poor fit]"}
{"smiles": "CCOC(=O)c1ccc(NC(=O)CC2C(=O)N(c3ccc(C)cc3)C(=O)N2C2CCCCC2)cc1", "note": "(stereo not given)", "Potency": "inconclusive: 141 µM [inhibitor, partial curve, poor fit]"}
{"smiles": "O=C(O)CNc1nc(NCc2ccc(Cl)cc2)ccc1[N+](=O)[O-]", "Potency": "inconclusive: 79.4 µM [inhibitor, single point]"}
{"smiles": "O=C(O)CNS(=O)(=O)c1ccc2c3c(cccc13)C(=O)N2", "Potency": "inactive"}
{"smiles": "CCOC(=O)CN(C(=O)CSc1nnc(-c2ccncc2)n1CCCN(C)C)c1ccccc1", "Potency": "inconclusive: 0.447 µM [inhibitor, full curve, poor fit]"}
{"smiles": "Cc1ccc(N(C)C(=O)c2cc(-c3ccco3)nc3ccccc23)cc1", "Potency": "active: 35.5 µM"}
{"smiles": "COCCn1c(SCC(=O)NCc2ccc(OC)c(OC)c2)nc2ccccc21", "Potency": "inconclusive: 44.7 µM [inhibitor, partial curve, poor fit]"}
{"smiles": "CCN1CCN(c2ccc(S(=O)(=O)N3CCCCC3)cc2NC(=O)c2cccc(C)c2[N+](=O)[O-])CC1", "Potency": "inconclusive: 56.2 µM [inhibitor, partial curve, poor fit]"}
{"smiles": "CCCS(=O)(=O)n1nc(-c2ccc(OC)cc2)cc1N", "Potency": "inconclusive: 100 µM [inhibitor, single point]"}
{"smiles": "COc1ccccc1CNC(=O)c1ccccc1OCc1ccc(F)cc1", "Potency": "inactive"}
{"smiles": "Cc1c(-c2ccccc2)oc2c(C(=O)OCC(=O)Nc3cccc(F)c3)cccc2c1=O", "Potency": "inconclusive: 2 µM [inhibitor, full curve, poor fit]"}
{"smiles": "Cc1ccc(-c2ccc(/C=N/n3cnnc3)o2)cc1", "Potency": "inconclusive: 100 µM [inhibitor, partial curve, poor fit]"}
{"smiles": "CCc1cc(C(=O)NNC(=S)Nc2ccccc2C)cs1", "Potency": "inactive"}
{"smiles": "Cc1c(Cl)cccc1NC(=O)C1CCCN(C(=O)c2cnn(-c3ccccc3)c2-n2cccc2)C1", "note": "(stereo not given)", "Potency": "inconclusive: 0.355 µM [inhibitor, full curve, poor fit]"}
{"smiles": "COc1ccc(NC(=O)C(=O)NCCN2CCN(C(=O)c3ccc(C)cc3)CC2)cc1", "Potency": "inconclusive: 3.55 µM [inhibitor, full curve, poor fit]"}
{"smiles": "Cc1ccc(C(=O)Nc2nc3cc(NS(=O)(=O)Cc4ccccc4)ccc3s2)cc1", "Potency": "inconclusive: 141 µM [inhibitor, single point]"}
{"smiles": "CN(C(=O)Cn1c(Cl)nc2c1c(=O)n(C)c(=O)n2C)C1CCS(=O)(=O)C1", "note": "(stereo not given)", "Potency": "inconclusive: 126 µM [inhibitor, partial curve, poor fit]"}
{"smiles": "Cc1ccsc1S(=O)(=O)N1CCCC(CCC(=O)NCc2ccccc2F)C1", "note": "(stereo not given)", "Potency": "inconclusive: 50.1 µM [inhibitor, partial curve, poor fit]"}
{"smiles": "Cc1cc2nc3n(c(=O)c2n1CC(=O)Nc1cccc(C#N)c1)CCCCC3", "Potency": "inconclusive: 56.2 µM [inhibitor, partial curve, poor fit]"}
{"smiles": "O=C(CCC[C@@H]1[C@H]2CCCN3CCC[C@@H](CN1C(=O)Cc1cccs1)[C@@H]23)N1CCOCC1", "Potency": "inactive"}
{"smiles": "CCCCn1c(=O)[nH]c(=O)c2c1nc(CCc1ccccc1)c(=O)n2CCOC", "Potency": "inconclusive: 44.7 µM [inhibitor, partial curve, poor fit]"}
{"smiles": "COc1ccccc1NC(=O)C1CC2CCC1C2", "note": "(stereo not given)", "Potency": "inactive"}
{"smiles": "CCCN1C(=O)NC(CC(=O)N2CCC(O)(c3ccc(C)cn3)CC2)C1=O", "note": "(stereo not given)", "Potency": "inconclusive: 7.94 µM [inhibitor, full curve]"}
{"smiles": "COC(=O)c1ccc(N2CCC(C)CC2)c(N)c1", "Potency": "inconclusive: 4.47 µM [inhibitor, full curve, poor fit]"}
{"smiles": "Cc1cc(Cl)c2oc(C(=O)N(CCO)Cc3ccccc3)c(C)c2c1", "Potency": "inconclusive: 8.91 µM [inhibitor, full curve, poor fit]"}
{"smiles": "O=C(CN1C(=O)NC(c2ccc(Cl)cc2)C2=C1COC2=O)Nc1ccc2c(c1)OCO2", "note": "(stereo not given)", "Potency": "inconclusive: 28.2 µM [inhibitor, partial curve]"}
{"smiles": "COC(=O)C1=C(C)N(Cc2cccc(C(F)(F)F)c2)C(=NCc2cccc(C(F)(F)F)c2)NC1c1ccc(Cl)cc1", "note": "(stereo not given)", "Potency": "inconclusive: 63.1 µM [inhibitor, partial curve, poor fit]"}
{"smiles": "C[C@H](CO)N1C[C@H](C)[C@@H](CN(C)S(=O)(=O)c2cccs2)Oc2ccc(NS(=O)(=O)c3ccc(F)cc3)cc2C1=O", "Potency": "inconclusive: 15.8 µM [inhibitor, partial curve, poor fit]"}
{"smiles": "O=C1CN(C(=O)COC(=O)COc2ccc(Cl)cc2Br)c2ccccc2N1", "Potency": "inconclusive: 50.1 µM [inhibitor, partial curve, poor fit]"}
{"smiles": "CCN(CC)C(=O)c1ccc(CNC(=O)N(C)C(C2CC2)C2CC2)cc1", "Potency": "inactive"}
{"smiles": "CCc1ccc(C(=O)COc2c(C)cc(Br)cc2Cl)cc1", "Potency": "inactive"}
{"smiles": "O=C1CN(CC(=O)N2CCCCC2)c2ccccc2O1", "Potency": "inconclusive: 7.94 µM [inhibitor, full curve, poor fit]"}
{"smiles": "O=C(CC1(O)C(=O)Nc2c(C(F)(F)F)cccc21)c1ccco1", "note": "(stereo not given)", "Potency": "inactive"}
{"smiles": "CCc1nnc(NC(=O)CSc2nc3cc4c(cc3cc2C)OCCO4)s1", "Potency": "inactive"}
{"smiles": "CC(=O)N1C[C@@H](C(=O)N2CCN(c3ncccn3)CC2)[C@H](c2nc(C)no2)C1", "Potency": "inactive"}
{"smiles": "O=C(Cc1ccc(F)cc1)Nc1ccc(F)c([N+](=O)[O-])c1", "Potency": "inactive"}
{"smiles": "COc1ccc(S(=O)(=O)NCC(c2cccnc2)N2CCN(c3ccccc3OC)CC2)cc1C", "note": "(stereo not given)", "Potency": "inactive"}
{"smiles": "Cc1ccsc1-c1n[nH]c(=S)n1CC(C)C", "Potency": "inconclusive: 56.2 µM [inhibitor, partial curve, poor fit]"}
{"smiles": "N#Cc1c(Nc2ccccc2Cl)s[nH]c1=O", "Potency": "inconclusive: 31.6 µM [inhibitor, partial curve, poor fit]"}
{"smiles": "CC(=O)N1CCN(c2ccc(NC(=O)c3ccc([N+](=O)[O-])cc3Cl)cc2)CC1", "Potency": "inconclusive: 141 µM [inhibitor, single point]"}
{"smiles": "Cc1cc(S(=O)(=O)Nc2cc3c(cc2Cl)n(C)c(=O)c(=O)n3C)ccc1F", "activity change, negative = inhibition": "inconclusive: -30.9% [inhibitor]"}
{"smiles": "CN(C)c1ccc(-c2csc(C(O)c3ccc(F)cc3)n2)cc1", "note": "(stereo not given)", "Potency": "inconclusive: 3.98 µM [inhibitor, full curve, poor fit]"}
{"smiles": "O=C(O)c1ccc(NC(=O)c2cc(-c3ccco3)nc3ccccc23)cc1", "Potency": "active: 7.94 µM"}
{"smiles": "CC(C)CCOc1ccc(C(=O)Nc2cc(S(=O)(=O)N3CCOCC3)ccc2N2CCOCC2)cc1", "Potency": "inconclusive: 112 µM [inhibitor, single point]"}
{"smiles": "Cc1ccc(Cc2nc3ccccc3n2C(CCc2ccccc2)c2nc3ccccc3[nH]2)cc1", "note": "(stereo not given)", "Potency": "inactive"}
{"smiles": "O=c1cc(-c2ccccc2)nc2cc(-c3ccco3)[nH]n12", "Potency": "inactive"}
{"smiles": "O=C(Cn1c(=O)oc2ccccc21)Nc1ccc(-c2nnc3n2CCCCC3)cc1", "Potency": "inconclusive: 56.2 µM [inhibitor, single point]"}
{"smiles": "COc1ccc(-c2ocnc2C(=O)Nc2c(C)cccc2C)cc1", "Potency": "inconclusive: 63.1 µM [inhibitor, partial curve, poor fit]"}
{"smiles": "CCCN1CCN(c2nc3ccccc3nc2NS(=O)(=O)c2cccc(Cl)c2)CC1", "Potency": "inconclusive: 50.1 µM [inhibitor, partial curve, poor fit]"}
{"smiles": "Cc1ccc2c(CSc3nnc(NCC(C)C)s3)cc(=O)oc2c1", "Potency": "active: 17.8 µM"}
{"smiles": "Cc1noc(C)c1CSCC(=O)N(C)CC(=O)Nc1ccc(Cl)cc1", "Potency": "inconclusive: 44.7 µM [inhibitor, partial curve, poor fit]"}
{"smiles": "Cn1c(=O)c2c(O)cc(=O)[nH]c2n(-c2ccccc2)c1=O", "Potency": "inconclusive: 35.5 µM [inhibitor, partial curve, poor fit]"}
{"smiles": "Oc1ccc2ccccc2c1CN1CCN(c2ccccc2F)CC1", "Potency": "active: 44.7 µM"}
{"smiles": "CN(C)c1ccc(/C=N/NC(=O)c2nonc2N)cc1[N+](=O)[O-]", "Potency": "inactive"}
{"smiles": "Cc1ccccc1NC(=O)CN1CCN(C)CC1", "Potency": "inconclusive: 0.398 µM [inhibitor, full curve, poor fit]"}
{"smiles": "CN(C)c1cc2c(cc1NC(=O)c1cccs1)n(C)c(=O)c(=O)n2C", "Potency": "inconclusive: 35.5 µM [inhibitor, partial curve, poor fit]"}
{"smiles": "CC1(C(=O)NS(=O)(=O)Cc2cccc(Cl)c2)CCN1C(=O)c1cccc(F)c1", "note": "(stereo not given)", "Potency": "inconclusive: 39.8 µM [inhibitor, partial curve, poor fit]"}
{"smiles": "Cc1ccc(NS(=O)(=O)c2ccc(C)c(C(=O)Nc3ccc(S(=O)(=O)Nc4onc(C)c4C)cc3)c2)cc1", "Potency": "inconclusive: 79.4 µM [inhibitor, single point]"}
{"smiles": "Fc1ccc(OCc2nnc(-c3ccccc3)o2)cc1F", "Potency": "inactive"}
{"smiles": "Cc1ccc(C)c(NCC(=O)c2ccc(Cl)cc2)c1", "Potency": "active: 35.5 µM"}
{"smiles": "Clc1ccc(-n2nnc(-c3ncc[nH]3)n2)cc1Cl", "Potency": "inconclusive: 50.1 µM [inhibitor, partial curve, poor fit]"}
{"smiles": "CC(C)[C@@H]1Cc2[nH]c(=S)[nH]c(=O)c2[C@H](C)O1", "Potency": "inconclusive: 89.1 µM [inhibitor, single point]"}
{"smiles": "CCN(CC)C(=O)C1=C(C)NC(=S)NC1c1cn(-c2ccccc2)nc1-c1ccc(Cl)cc1", "note": "(stereo not given)", "Potency": "inconclusive: 35.5 µM [inhibitor, partial curve]"}
{"smiles": "O=C1C2CCCCN2C(=O)N1CCCCN1CCN(c2cccc(Cl)c2)CC1", "note": "(stereo not given)", "Potency": "inactive"}
